Source: patent US20160115234A1 (Biogen, published 2016)
No constants are given. Whether binding was seen depends on the method and setting. Some entries that bind do so weakly or less than the wild type.

By UniProt entry, the sequences of proteins in these tests, tags left out. Where a name states a change or a piece, a line headed by the entry shows the natural chain unless it says otherwise.
UniProt P08514: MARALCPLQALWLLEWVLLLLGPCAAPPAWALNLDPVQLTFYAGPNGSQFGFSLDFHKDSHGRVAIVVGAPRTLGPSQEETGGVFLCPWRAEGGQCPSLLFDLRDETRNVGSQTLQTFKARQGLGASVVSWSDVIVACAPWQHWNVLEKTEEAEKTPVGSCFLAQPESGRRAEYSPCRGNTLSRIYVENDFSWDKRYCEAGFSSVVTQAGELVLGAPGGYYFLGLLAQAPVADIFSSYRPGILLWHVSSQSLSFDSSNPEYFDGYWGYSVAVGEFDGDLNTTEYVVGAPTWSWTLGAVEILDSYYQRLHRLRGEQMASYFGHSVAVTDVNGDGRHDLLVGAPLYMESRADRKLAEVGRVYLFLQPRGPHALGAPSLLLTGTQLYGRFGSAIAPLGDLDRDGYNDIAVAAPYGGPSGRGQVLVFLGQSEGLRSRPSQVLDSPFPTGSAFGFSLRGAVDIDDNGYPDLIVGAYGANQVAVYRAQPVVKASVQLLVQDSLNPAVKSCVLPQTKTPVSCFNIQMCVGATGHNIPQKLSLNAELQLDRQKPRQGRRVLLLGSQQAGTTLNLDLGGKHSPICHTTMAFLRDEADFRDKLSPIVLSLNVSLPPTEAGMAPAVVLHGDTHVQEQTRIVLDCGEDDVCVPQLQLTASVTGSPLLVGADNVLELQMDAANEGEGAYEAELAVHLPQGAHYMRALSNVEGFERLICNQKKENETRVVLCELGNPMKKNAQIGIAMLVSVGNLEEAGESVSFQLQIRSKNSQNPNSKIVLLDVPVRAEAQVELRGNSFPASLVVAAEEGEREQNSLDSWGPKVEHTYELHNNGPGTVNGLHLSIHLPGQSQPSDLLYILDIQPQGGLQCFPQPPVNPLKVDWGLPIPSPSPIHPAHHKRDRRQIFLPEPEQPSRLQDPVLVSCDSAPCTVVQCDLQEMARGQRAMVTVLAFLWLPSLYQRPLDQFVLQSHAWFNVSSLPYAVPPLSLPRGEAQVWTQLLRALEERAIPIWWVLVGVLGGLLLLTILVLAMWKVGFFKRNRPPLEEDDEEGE

Target: human GPIIb/IIIa (Calbiochem Cat No. 528240) (human) (UniProt P08514)
Test: ELISA, hybridoma supernatant

Row | binding | Binder
1 | binds | 1H6 (antibody, V domains shown, Mouse hybridoma monoclonal tested as supernatant) VH: QVQLQQSGAELVRPGTSVKVSCKASGYAFTNYLIEWVKQRPGQGLEWIGVINPGSGGTNYNEKFKGKATLTADKSSSTAYMHLSSLTSDDSAVYFCARGRYEWYFDVWGAGTTVTVSS VL: DIQMTQTTSSLSASLGDRVTISCRASQDITNYLNWYQRKPDGTVKLLIYYTSRLHSGVPSRFSGSGSGTDYSLTISNLEQEDIATYFCQQGYTLPYTFGGGTKLEIKR
2 | binds | 34D10 (antibody, V domains shown, Mouse hybridoma monoclonal tested as supernatant) VH: EVKLVESGGGLVKPGGSLKLSCAASGFTFSAYAMSWVRQTPEKRLEWVASISSGGTTYYPDSVKRRFTISRDNARNILYLQMSSLRSEDTAMYYCTRGGDYGYALDYWGQGTSVTVSS VL: ENVLTQSPAIMSASLGEKVTMSCRASSSVNYMYWYQQKSDASPKLWIYYTSNLAPGVPARFSGSGSGNSYSLTISSMEGEDAATYYCQQFSSSPWTFGGGTKLEIKR
